This is an account of results in PMC12282144 (Journal of Virology, 2025).

By UniProt entry, the sequences of proteins in these tests, tags left out. Chains listed by the source or under a name are the forms on record and can include a tag or linker. Residues count along the entry.
Flag-tagged ERA G (plasmid-transfected) (P03524, residues 20-524): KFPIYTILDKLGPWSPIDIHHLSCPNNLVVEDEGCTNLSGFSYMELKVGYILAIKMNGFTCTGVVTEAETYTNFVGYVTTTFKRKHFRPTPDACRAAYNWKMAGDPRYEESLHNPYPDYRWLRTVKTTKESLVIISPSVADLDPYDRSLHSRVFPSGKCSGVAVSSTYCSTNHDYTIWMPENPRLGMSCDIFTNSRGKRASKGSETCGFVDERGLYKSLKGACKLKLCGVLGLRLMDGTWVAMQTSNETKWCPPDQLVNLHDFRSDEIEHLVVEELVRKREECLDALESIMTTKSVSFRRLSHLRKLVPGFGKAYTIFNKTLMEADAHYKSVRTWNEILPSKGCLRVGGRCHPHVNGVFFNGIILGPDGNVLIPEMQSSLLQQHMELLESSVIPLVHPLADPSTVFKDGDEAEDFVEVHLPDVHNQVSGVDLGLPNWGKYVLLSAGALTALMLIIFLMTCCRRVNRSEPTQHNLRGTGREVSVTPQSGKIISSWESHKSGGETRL
His-tagged RABV G ectodomain derived from the ERA strain (aa 41-450) (P03524, residues 41-450): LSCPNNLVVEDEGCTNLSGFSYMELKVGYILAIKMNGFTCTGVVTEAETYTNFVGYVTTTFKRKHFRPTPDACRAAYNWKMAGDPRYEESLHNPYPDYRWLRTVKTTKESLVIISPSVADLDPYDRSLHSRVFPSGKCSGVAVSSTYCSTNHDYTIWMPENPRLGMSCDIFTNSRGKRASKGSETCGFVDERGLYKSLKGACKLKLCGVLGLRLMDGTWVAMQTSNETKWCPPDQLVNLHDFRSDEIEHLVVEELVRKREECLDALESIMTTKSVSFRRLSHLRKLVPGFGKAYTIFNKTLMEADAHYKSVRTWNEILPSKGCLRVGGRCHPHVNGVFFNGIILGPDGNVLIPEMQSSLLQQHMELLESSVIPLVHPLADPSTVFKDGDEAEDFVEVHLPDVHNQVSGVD
UniProt P37173, residues 188-567: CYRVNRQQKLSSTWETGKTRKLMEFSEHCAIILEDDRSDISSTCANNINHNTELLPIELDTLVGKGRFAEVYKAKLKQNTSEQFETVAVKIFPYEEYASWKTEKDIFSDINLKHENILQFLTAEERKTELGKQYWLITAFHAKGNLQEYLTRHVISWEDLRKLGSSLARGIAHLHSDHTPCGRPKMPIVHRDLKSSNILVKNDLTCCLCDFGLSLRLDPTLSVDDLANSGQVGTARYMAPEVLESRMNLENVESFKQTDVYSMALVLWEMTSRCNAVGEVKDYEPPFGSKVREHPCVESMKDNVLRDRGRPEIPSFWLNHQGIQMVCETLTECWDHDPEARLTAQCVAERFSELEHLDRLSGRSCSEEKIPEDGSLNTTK

Results are given in words; binding and its absence hold for the method and conditions named. For some of these results: Binding seen in cells or lysates may run through a third protein. Some results given as binding are weak or reduced against the parent protein; the word gives no strength. For some of these results: Where a sequence is shown, tags or fusion partners need not be part of it.

Assay [1] deals with T1, N-terminal GST-tagged soluble ectodomain of NRP2 (aa 17-865) (human) (UniProt O60462).
T1 sequence: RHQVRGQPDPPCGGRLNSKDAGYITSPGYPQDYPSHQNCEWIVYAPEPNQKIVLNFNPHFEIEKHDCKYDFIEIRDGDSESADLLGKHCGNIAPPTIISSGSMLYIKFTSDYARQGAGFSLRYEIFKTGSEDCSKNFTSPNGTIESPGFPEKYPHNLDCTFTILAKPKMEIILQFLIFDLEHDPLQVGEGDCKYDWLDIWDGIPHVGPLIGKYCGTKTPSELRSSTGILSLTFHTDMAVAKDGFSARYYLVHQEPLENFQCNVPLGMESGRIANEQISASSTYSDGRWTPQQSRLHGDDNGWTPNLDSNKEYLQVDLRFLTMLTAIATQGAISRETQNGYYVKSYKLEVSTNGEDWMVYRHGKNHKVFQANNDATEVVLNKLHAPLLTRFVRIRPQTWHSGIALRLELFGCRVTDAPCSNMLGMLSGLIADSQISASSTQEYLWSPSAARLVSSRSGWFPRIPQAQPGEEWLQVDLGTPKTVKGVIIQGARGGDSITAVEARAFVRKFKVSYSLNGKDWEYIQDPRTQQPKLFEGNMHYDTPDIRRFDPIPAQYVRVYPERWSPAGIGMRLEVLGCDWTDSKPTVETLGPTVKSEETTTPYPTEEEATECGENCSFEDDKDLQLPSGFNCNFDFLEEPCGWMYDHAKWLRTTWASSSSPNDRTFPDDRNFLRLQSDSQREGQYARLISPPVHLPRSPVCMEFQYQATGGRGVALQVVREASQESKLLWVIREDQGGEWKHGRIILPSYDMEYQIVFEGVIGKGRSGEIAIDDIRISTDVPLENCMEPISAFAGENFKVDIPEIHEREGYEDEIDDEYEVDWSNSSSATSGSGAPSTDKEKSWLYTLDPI
The experiment in a line: pull-down; both purified.

The target of assay [2] is T2, cytoplasmic domain of NRP2 (human) (UniProt O60462).
T2 sequence: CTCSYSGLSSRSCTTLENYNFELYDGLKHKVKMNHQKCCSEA
Kind of assay: co-IP.

Assay [3] deals with ERA G-Flag derived from HEK293 cells infected with ERA(G/Flag) (rabies virus, strain ERA) (UniProt P03524). Kind of assay: co-IP.
The target in assay [4] is Flag-tagged ERA G (plasmid-transfected) (rabies virus, strain ERA) (UniProt P03524). Kind of assay: pull-down; only the binder purified.

Consider “His-tagged RABV G ectodomain derived from the ERA strain (aa 41-450) (from UniProt P03524 41-450) (domain or fragment)”, for which the binding entry in assay [1] was “binds”.

In the case of “cytoplasmic domain of the human TGFBR2 (from UniProt P37173 188-567) (domain or fragment)”, in assay [2], the binding entry is given as “no binding”.

B1: endogenous NRP2 (receptor, UniProt O60462 21-931)
chain: RGQPDPPCGGRLNSKDAGYITSPGYPQDYPSHQNCEWIVYAPEPNQKIVLNFNPHFEIEKHDCKYDFIEIRDGDSESADLLGKHCGNIAPPTIISSGSMLYIKFTSDYARQGAGFSLRYEIFKTGSEDCSKNFTSPNGTIESPGFPEKYPHNLDCTFTILAKPKMEIILQFLIFDLEHDPLQVGEGDCKYDWLDIWDGIPHVGPLIGKYCGTKTPSELRSSTGILSLTFHTDMAVAKDGFSARYYLVHQEPLENFQCNVPLGMESGRIANEQISASSTYSDGRWTPQQSRLHGDDNGWTPNLDSNKEYLQVDLRFLTMLTAIATQGAISRETQNGYYVKSYKLEVSTNGEDWMVYRHGKNHKVFQANNDATEVVLNKLHAPLLTRFVRIRPQTWHSGIALRLELFGCRVTDAPCSNMLGMLSGLIADSQISASSTQEYLWSPSAARLVSSRSGWFPRIPQAQPGEEWLQVDLGTPKTVKGVIIQGARGGDSITAVEARAFVRKFKVSYSLNGKDWEYIQDPRTQQPKLFEGNMHYDTPDIRRFDPIPAQYVRVYPERWSPAGIGMRLEVLGCDWTDSKPTVETLGPTVKSEETTTPYPTEEEATECGENCSFEDDKDLQLPSGFNCNFDFLEEPCGWMYDHAKWLRTTWASSSSPNDRTFPDDRNFLRLQSDSQREGQYARLISPPVHLPRSPVCMEFQYQATGGRGVALQVVREASQESKLLWVIREDQGGEWKHGRIILPSYDMEYQIVFEGVIGKGRSGEIAIDDIRISTDVPLENCMEPISAFAGENFKVDIPEIHEREGYEDEIDDEYEVDWSNSSSATSGSGAPSTDKEKSWLYTLDPILITIIAMSSLGVLLGATCAGLLLYCTCSYSGLSSRSCTTLENYNFELYDGLKHKVKMNHQKCCSEA
Consider B1, for which the binding entry in assay [3] is “binds”.

B2: recombinant Fc-tagged NRP2 ectodomain (Fc fusion, UniProt O60462 21-864)
chain: RGQPDPPCGGRLNSKDAGYITSPGYPQDYPSHQNCEWIVYAPEPNQKIVLNFNPHFEIEKHDCKYDFIEIRDGDSESADLLGKHCGNIAPPTIISSGSMLYIKFTSDYARQGAGFSLRYEIFKTGSEDCSKNFTSPNGTIESPGFPEKYPHNLDCTFTILAKPKMEIILQFLIFDLEHDPLQVGEGDCKYDWLDIWDGIPHVGPLIGKYCGTKTPSELRSSTGILSLTFHTDMAVAKDGFSARYYLVHQEPLENFQCNVPLGMESGRIANEQISASSTYSDGRWTPQQSRLHGDDNGWTPNLDSNKEYLQVDLRFLTMLTAIATQGAISRETQNGYYVKSYKLEVSTNGEDWMVYRHGKNHKVFQANNDATEVVLNKLHAPLLTRFVRIRPQTWHSGIALRLELFGCRVTDAPCSNMLGMLSGLIADSQISASSTQEYLWSPSAARLVSSRSGWFPRIPQAQPGEEWLQVDLGTPKTVKGVIIQGARGGDSITAVEARAFVRKFKVSYSLNGKDWEYIQDPRTQQPKLFEGNMHYDTPDIRRFDPIPAQYVRVYPERWSPAGIGMRLEVLGCDWTDSKPTVETLGPTVKSEETTTPYPTEEEATECGENCSFEDDKDLQLPSGFNCNFDFLEEPCGWMYDHAKWLRTTWASSSSPNDRTFPDDRNFLRLQSDSQREGQYARLISPPVHLPRSPVCMEFQYQATGGRGVALQVVREASQESKLLWVIREDQGGEWKHGRIILPSYDMEYQIVFEGVIGKGRSGEIAIDDIRISTDVPLENCMEPISAFAGENFKVDIPEIHEREGYEDEIDDEYEVDWSNSSSATSGSGAPSTDKEKSWLYTLDP
For B2, the binding result in assay [4] is “binds”.
